Paper PMC7504466, “In-Vitro and In-Silico Evaluations of Heterocyclic-Containing Diarylpentanoids as Bcl-2 Inhibitors Against LoVo Colorectal Cancer Cells” (Molecules, 2020)

test system: human CRC cell lines (T84, SW620, LoVo, HT29, NCI-H508, RKO, LS411N); test: MTT cytotoxicity assay, panel of KRAS- and BRAF-mutated CRC cell lines; assay type: cell-based; details: NHDF versus CRC cell lines, 72 h
Experimental: The in-vitro cytotoxic activity of the synthesized compounds on seven human CRC cell lines including KRAS (T84, SW620, LoVo) and BRAF (HT29, NCI-H508, RKO and LS411N) mutated cells were determined by MTT assay as previously described. The IC50 values obtained are summarized in Table 2 in which 5-FU and normal human dermal fibroblasts (NHDF) were used as controls. Meanwhile, a heatmap (Figure 3) was also generated using GraphPad Prism v7.0 (GraphPad Software, La Jolla, CA, USA) to visualize the cytotoxic trends of synthesized compounds graphically.
A panel of KRAS (T84, SW620 and LoVo) and BRAF (HT29, NCI-H508, RKO and LS411N) mutated human CRC cell lines were grown in Dulbecco’s modified Eagle’s medium (DMEM) containing 10% fetal bovine serum (FBS) and 1% penicillin/streptomycin at 37 °C under 5% CO2 while NHDF cells were cultured in DMEM with 5% FBS under the same condition. The culture medium was replenished every two days until the cells reached 80–90% confluency for further usage. All cell lines (T84, ATCC®CCL-248™; SW620, ATCC®CCL-227™; LoVo, ATCC®CCL-229™; HT-29, ATCC®HTB-38; NCI-H508, ATCC®CCL-253™; RKO, ATCC®CRL-2577; LS411N, ATCC®CRL-2159; NHDF, ATCC® PCS-201-010™) were purchased from American Type culture Collections (ATCC, Manassas, VA, USA).
LoVo cells (1.5–5 × 10^3 cells/well) were seeded into a 96 well plate and incubated at 37 °C and 5% CO2 atmosphere for 24 h. On the following day, the cell media were replaced with 100 µL of test compounds at various concentration. The final concentration of DMSO in the well is 0.1%. After 72 h of incubation, culture medium was removed and 100 µL of MTT (thiazoyl blue tertrazolium bromide) solution (0.5 mg/mL in culture media) was added. The resultant plates were then further incubated at 37 °C for 4 h. Upon completion, the MTT solution was removed and the formazan salts formed were dissolved in 100 µL of DMSO. The absorbance was recorded with a microplate reader at 570 nm. The IC50 values of tested compounds were calculated from three independent experiments.

Row | Compound | Chemo-Therapeutic Index
1 | O=C1C(=Cc2ccc(F)c(F)c2)CCCC1=Cc1ccc(F)c(F)c1 [Compound 2c, 2,6-Bis(3,4-difluorobenzylidene)cyclohexanone] | 2.3–5.0
2 | COc1ccccc1C=C1CSCC(=Cc2ccccc2OC)C1=O [Compound 2d, 3,5-Bis(2-methoxybenzylidene)tetrahydro-4H-thiopyran-4-one] | 1.4–1.8
3 | O=C1C(=Cc2ccc(F)c(F)c2)CSCC1=Cc1ccc(F)c(F)c1 [Compound 2f, 3,5-Bis(3,4-difluorobenzylidene)tetrahydro-4H-thiopyran-4-one] | 0.3–0.8
